In PubChem BioAssay AID2551 (National Center for Advancing Translational Sciences (NCATS), 2010):
Hit rate of the full screen: of about 310,000 compounds, about 17,000 (5.5%) were called active. The inconclusive results got no clear call from the source; some entries with a clear call stand among them for comparison. Calls come from the whole dose curve; as a rule, active = well fitted inhibition curve with a large enough effect; inconclusive = small, poorly fitted or top-dose-only effect, or effect the other way; inactive = no such curve, though single readings can be large or run the other way. Potencies beside an inconclusive call are fits to weak or partial responses and may not hold up.

Amino acid sequences for entries named in this document (tags omitted). A change or cut given only in a name is not applied to a line headed by its entry.
UniProt P51450: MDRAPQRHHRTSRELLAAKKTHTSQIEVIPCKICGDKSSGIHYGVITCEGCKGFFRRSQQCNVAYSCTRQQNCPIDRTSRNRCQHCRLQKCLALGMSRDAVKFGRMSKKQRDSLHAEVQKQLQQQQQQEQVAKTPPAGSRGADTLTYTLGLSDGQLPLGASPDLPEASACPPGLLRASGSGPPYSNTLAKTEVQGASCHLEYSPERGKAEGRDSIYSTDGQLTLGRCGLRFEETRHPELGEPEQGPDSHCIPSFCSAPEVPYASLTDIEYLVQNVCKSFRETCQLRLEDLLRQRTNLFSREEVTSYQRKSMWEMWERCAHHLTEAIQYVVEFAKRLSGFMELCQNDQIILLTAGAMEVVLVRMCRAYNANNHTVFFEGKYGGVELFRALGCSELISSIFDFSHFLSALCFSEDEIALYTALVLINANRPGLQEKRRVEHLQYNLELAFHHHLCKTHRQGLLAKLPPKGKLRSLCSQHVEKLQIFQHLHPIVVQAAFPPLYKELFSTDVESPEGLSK

molecular target: Nuclear receptor ROR-gamma (Mus musculus) (UniProt P51450); experiment: qHTS for inhibitors of ROR gamma transcriptional activity; conditions: Drosophila S2 Gal4-RORgamma UAS-luciferase reporter, 20 h; activity change, negative = inhibition: at 53.6 µM (top of the series); note: nearly all actives have a fitted effect of over 60% in size
Method in brief: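 Schneider cells (Drosophila), stable Gal4 DBD–ROR gamma + UAS-luc; 1 hr cmpd preincubation; Cu2+ induction 700 uM final; 20 hr ambient; luminescence.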
% is set by controls: 0 for no effect and ±100 for the full control effect; potency is the fitted concentration of half-maximal effect.

SMILES	Potency	activity change, negative = inhibition
CCOC(=O)CNNC(=O)Nc1ccc(Cl)c(Cl)c1	inactive	
O=C(NCc1cccc(C(F)(F)F)c1)c1cccc(S(=O)(=O)NCc2ccccc2)c1	inconclusive: 22.4 µM [activator, single point]	
CCOC(=O)C1(C)C=C(Nc2ccc(OCC)cc2)C(=O)N1c1ccccc1 (stereo unspecified)	inconclusive: 15.8 µM [activator, single point]	
Cc1ccc(C)c(N2CCN(C(=S)Nc3ccc4nc(N5CCN(C)CC5)cc(C)c4c3)CC2)c1	active: 11.2 µM	
O=C(CSc1nnc2scc(-c3ccccc3)n12)Nc1ccc2c(c1)OCCO2	inconclusive: 11.2 µM [inhibitor, partial curve, poor fit]	
Cc1cccc(-c2nn(C(=S)Nc3ccccc3)cc2-c2ccnc3ccccc23)n1	inconclusive: 10 µM [inhibitor, partial curve]	
COc1cc2c(cc1OC)CN(C(=S)Nc1cccc(Cl)c1C)CC2	inconclusive: 20 µM [inhibitor, single point]	
N#Cc1c(NC(=O)c2ccc(Cn3cc(Br)cn3)o2)sc2c1CCCCCC2	active: 5.62 µM	
O=C(c1cc(-c2ccc(Cl)c(Cl)c2)on1)N1CCCC1	inconclusive: 0.0891 µM [activator, full curve, poor fit]	
O=[N+]([O-])/C=C/c1cn(Cc2ccccc2)c2ccccc12	inactive	
Cc1ccc(C[n+]2cccc(-c3ccccc3)c2)c(C)c1	inconclusive: 8.91 µM [activator, partial curve]	
CC(C)C/C=C1\CCc2c([nH]c3ccccc23)C1=O	inactive	
COC(=O)c1ccccc1NC(=O)C1CCCN(S(=O)(=O)c2ccccc2)C1 (stereo unspecified)	inactive	
O=C(NCCC1=CCCCC1)c1ccc(F)c(S(=O)(=O)N2CCOCC2)c1	inconclusive: 17.8 µM [activator, single point]	
CCOc1cc(CNCC(C)C)cc(Cl)c1OCc1ccccc1	inconclusive: 11.2 µM [inhibitor, single point]	
Cc1nn(C)c(Sc2ccccc2N)c1[N+](=O)[O-]	inconclusive: 15.8 µM [inhibitor, single point]	
COc1ccc(-n2nc(C(=O)NCC(=O)N3CCC(C)CC3)c3ccccc3c2=O)c(OC)c1	inconclusive: 15.8 µM [inhibitor, single point]	
CC(C)(C)c1cc(NC(=O)CCl)n(-c2ccccc2)n1	inconclusive: 22.4 µM [inhibitor, single point]	
COc1ccc(C2(NC(C)=O)CCN(Cc3cccnc3)CC2)cc1	inactive	
COc1cccc(N=Nc2ccc3cccnc3c2O)c1	active: 0.562 µM	
Cc1ccc(C(C(=O)NC2CCCC2)N(C(=O)Cc2cccs2)c2ccc3c(c2)OCCO3)cc1 (stereo unspecified)	inactive	
CC1CCc2nc(NC(=O)c3ccc(S(=O)(=O)N4CCCc5ccccc54)cc3)sc2C1 (stereo unspecified)	active: 6.31 µM	
Clc1cc(Cl)c2nc(N3CCOCC3)sc2c1	inconclusive: 10 µM [activator, partial curve]	
COc1cccc(-c2csc(N3CCN(C(=S)Nc4cccc(Cl)c4)CC3)n2)c1	active: 2.82 µM	
CCCn1nnc(NC(=O)COc2ccccc2Cl)n1	inconclusive: 5.62 µM [activator, single point]	
CCOC(=O)c1ccc(NC(=S)NN)cc1	active: 10 µM	

SMILES	Potency	activity change, negative = inhibition
O=C(c1ccco1)N1CCN(S(=O)(=O)c2ccc(Oc3ccccc3)cc2)CC1	inconclusive: 17.8 µM [activator, partial curve]	
O=C(O)c1cccc(CN2C(=O)S/C(=C/c3cccc([N+](=O)[O-])c3)C2=O)c1	active: 5.62 µM	
COc1cc(NC(=O)c2cccnc2)ccc1NC(=O)c1ccccc1Cl	inconclusive: 2.82 µM [activator, full curve, poor fit]	
CSc1nnc2c(n1)[nH]c1c(C)cccc12	inconclusive: 3.16 µM [activator, partial curve, poor fit]	
Nc1nc(SCc2ccc(Cl)cc2)[nH]c(=O)c1-c1ccccc1	inconclusive: 22.4 µM [activator, partial curve, poor fit]	
Cc1ccc(Nc2nc(N)nc(CSC(=S)N3CCN(c4ccccc4)CC3)n2)cc1	inactive	
Cc1[nH]c2ccccc2c1C(=O)CN1C(=O)NC2(CC(C)CC(C)(C)C2)C1=O (stereo unspecified)	inconclusive: 11.2 µM [activator, single point]	
COc1cccc(/C=N/Nc2ncc(C)c(=O)[nH]2)c1OC	inactive	
COc1ccc(C2CC(c3cccc(Cl)c3)n3nc(N)nc3N2)cc1 (stereo unspecified)	inconclusive: 35.5 µM [activator, single point]	
Cc1oc(C(C)(C)C)cc1C(=O)NC1CCN(Cc2ccccc2)CC1	inactive	
O=C(Nc1cccc(Cl)c1)Nc1cc(S(=O)(=O)N2CCCCC2)ccc1Cl	inconclusive: 10 µM [inhibitor, single point]	
COCc1nc2ccccc2n1Cc1ccc(Br)cc1	active: 10 µM	
CCc1cccc(CC)c1N(COC)C(=O)Cn1cnc2ccccc21	active: 10 µM	
COC(=O)c1[nH]c2cc(C)ccc2c1NC(=O)CN1CCN(c2ccccc2OC)CC1	inconclusive: 7.08 µM [activator, partial curve, poor fit]	
CN(C)c1ccc(/C=C/c2ccncc2)cc1	inactive	
COC(=O)C1=C(CN2CCCc3ccccc32)NC(=O)NC1c1ccc(F)cc1 (stereo unspecified)	active: 1.41 µM	
Cc1ccc(CNC(=S)Nc2ccc(NS(=O)(=O)c3ccc(C)cc3)cc2)cc1	inconclusive: 15.8 µM [inhibitor, single point]	
COc1ccc2c(CCNC(=O)Nc3ccccc3)c[nH]c2c1	inconclusive: 8.91 µM [activator, partial curve]	
O=C(Nc1nnc(C2=COCCO2)o1)c1ccc([N+](=O)[O-])s1	active: 2.82 µM	
COc1ccc(/C=C/C(=O)NC(=S)Nc2ccc(S(=O)(=O)Nc3cc(C)on3)cc2)cc1	inconclusive: 20 µM [activator, partial curve, poor fit]	
CC(C)CCCCCCNC(=S)Nc1ccc(S(=O)(=O)N2CCOCC2)cc1	inconclusive: 22.4 µM [inhibitor, single point]	
Cc1ccc(-c2cn3cc(C)ccc3n2)cc1	inconclusive: 35.5 µM [inhibitor, single point]	
O=S(=O)(c1cccc(NC(=S)N2CCN(c3cccc(Cl)c3)CC2)c1)C(F)F	active: 12.6 µM	
O=C(NC(=S)NCCc1ccccc1)c1ccccc1	active: 5.62 µM	
COCc1nnc(NC(=O)C2CC(=O)N(CCc3ccc(F)cc3)C2)s1 (stereo unspecified)	inactive	
CCC(C)(C)C1CCC(=NNc2nc3ccccc3[nH]2)CC1 (stereo unspecified)	active: 11.2 µM	

SMILES	Potency	activity change, negative = inhibition
CCC1Sc2ccc(S(=O)(=O)Nc3ccc(OC)cc3)cc2NC1=O (stereo unspecified)	inactive	
COc1ccc(C)cc1S(=O)(=O)Nc1ccc(F)c(Cl)c1	inconclusive: 0.112 µM [inhibitor, full curve, poor fit]	
CCc1ccc(OCCNC(=O)c2cccs2)cc1	inactive	
CCCOc1ccc(Cn2cnc3ccccc32)cc1	active: 15.8 µM	
CCN(CC)S(=O)(=O)c1cccc(NC(=O)COC(=O)c2cc(C)oc2C)c1	inactive	
CCOC(=O)c1nn(-c2ccc(F)cc2)c2c1CC/C2=C/c1ccccc1	inconclusive: 35.5 µM [inhibitor, single point]	
CSC1=NC(C)(C)C=C(/C=C/c2c(Cl)cccc2Cl)N1	inconclusive: 35.5 µM [inhibitor, single point]	
Cc1ccc2nc(-c3ccc(NC(=O)COC(=O)c4ccc(Br)o4)cc3)sc2c1	active: 0.282 µM	
Cc1cc(OCCN2CCOCC2)ccc1Cl	inconclusive: 0.447 µM [inhibitor, partial curve, poor fit]	
COc1ccc(-c2[nH]ncc2/C=N/NC(=O)c2ccc(Br)cc2)c(OC)c1	inconclusive: 14.1 µM [inhibitor, single point]	
CCC(CC)c1nnc(NC(=O)CCS(=O)(=O)Cc2ccccc2)s1	inactive	
Cc1nc(NC(=O)/C=C/c2ccccc2)sc1C(=O)Nc1ccc(Cl)cc1	inactive	
Cc1ccc(-n2nc(C)c3c2OC(N)=C(C#N)C3c2ccco2)cc1 (stereo unspecified)	inconclusive: 10 µM [activator, partial curve]	
Cc1cc(C(=O)CSc2ncn[nH]2)c(C)n1-c1cccc(S(=O)(=O)N2CCOCC2)c1		inactive: 23.6% [at 10 µM]
CN=c1scc(C)n1/N=C/c1ccc(O)cc1O	active: 0.631 µM	
CCOC(=O)c1sc(NC(=O)CSc2nc3c(c(=O)n2-c2ccc(C)cc2)SCC3)c(C(=O)OCC)c1C	inactive	
CS(=O)(=O)Nc1ccc(-c2n[nH]c(=S)n2-c2ccccc2)cc1	inconclusive: 22.4 µM [inhibitor, partial curve, poor fit]	
COCCn1c(N)c(S(=O)(=O)c2cccs2)c2nc3ccccc3nc21	inactive	
CCc1ccccc1NC(=S)NNC(=O)c1ccccc1Cl	inconclusive: 0.282 µM [inhibitor, full curve, poor fit]	
COc1ccccc1/C=C(\NC(=O)c1ccc(OC)c(OC)c1)C(=O)Nc1cc([N+](=O)[O-])ccc1C	inactive	
O=C(/C=C/c1cccs1)NCc1ccccc1	inactive	
O=[N+]([O-])c1cccc(/C=N\N2CCN(Cc3ccccc3Cl)CC2)c1	inconclusive: 35.5 µM [activator, single point]	
Cc1ccc(C(=O)N=c2sccn2C)o1	inactive	
O=C(CN1CCN(Cc2cccc(F)c2)CC1)NCc1ccccc1	inconclusive: 35.5 µM [inhibitor, single point]	

Gathered by group, the compounds so far containing a tert-butyl group
SMILES	Potency	activity change, negative = inhibition
CC(C)(C)c1cc(NC(=O)CCl)n(-c2ccccc2)n1	inconclusive: 22.4 µM [inhibitor, single point]	
Cc1oc(C(C)(C)C)cc1C(=O)NC1CCN(Cc2ccccc2)CC1	inactive	
